The values below come from PubChem BioAssay AID2685 (National Center for Advancing Translational Sciences (NCATS), 2010).

This experiment is described as follows: qHTS Assay for Lipid Storage Modulators in Drosophila S3 Cells.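 On cell number change: cells counted by Cell Tracker Red CMTPX staining in the red channel.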 The note with it: BODIPY lipid droplet fluorescence, 18-24 h; for cell number change: measured here: cell count max response, cells fed with added oleic acid. Summed up:
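Drosophila S3 cells got compounds at several concentrations plus oleic acid (400 uM solution). Laser-scanning cytometry with 488 nm excitation read lipid droplets at 500-530 nm and cells at 575-640 nm. Percent activity was relative to 20 uM Triacsin C.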
(In general: In qHTS, concentration-response curves come from the screen itself.)

The mark [1] stands for this setting: measured here: lipid fluorescence (Fed channel) AC50, cells fed with added oleic acid.
Where [2] appears, read: measured here: cell number channel AC50, cells fed with added oleic acid.

This is one part of the list. Further columns of the screen follow, without active or inactive calls. The list favours compounds with an active or inconclusive main result. Potencies come from curve fits of mixed quality, noted in brackets.

In general, AC50 refers to the midpoint of the concentration-response curve, whichever way the signal moves. The low end stands for activity at low concentration, the high end for activity only at high concentration. In the case of `CN(CC(=O)Nc1ccc(N2CCOCC2)cc1)C(=O)c1cc(S(=O)(=O)N(C)C)ccc1Cl`, the cell number change stood at 13.8%. Further, the AC50 under setting [1] is 11.6 µM [rising, partial curve].
As to `Cc1c(Br)c([N+](=O)[O-])nn1CC(=O)NCc1cccs1`, the cell number change is -29.9%. Moreover, the AC50 under setting [1] was 0.231 µM [falling, full curve, poor fit].
For the molecule `c1ccc2c(c1)OCC(c1csc3ncnc(N4CCCC4)c13)O2` (centres undefined), the cell number change was 47.5%. Besides, the AC50 under setting [2] is 16.4 µM [rising, partial curve, poor fit]. In addition, the concentration at half-maximal activity (AC50) under setting [1] is 20.6 µM [rising, partial curve].
In the case of `O=c1c(-c2cccc(Cl)c2)c[nH]n1-c1ccccc1`, the cell number change is 25.7%. In addition, the half-maximal activity concentration (AC50) under setting [1] was 5.8 µM [rising, full curve].
Consider `O=C(Nc1ccccc1C(=O)N/N=C/c1ccccc1)c1ccco1`, for which the cell number change is -7.14%.
On to `CC(=O)C12CCCCC1CC1[C@@H]3CC(C)C4=CC(=O)CC[C@]4(C)C3CC[C@@]12C` (some centres undefined), for which the cell number change is -8.33%. Also, under setting [1], the AC50 is 29.1 µM [rising, single point].
As to `Cc1c(/N=C/c2ccco2)n(Cc2ccccc2)c2ccccc12`, the cell number change is -15.2%. In addition, under setting [1], the AC50 was 29.1 µM [falling, single point].
Take `CCCC(=O)N1c2ccc(-c3csc(N)n3)cc2CC1C` (centres undefined): the cell number change is -11.7%.
Turning to `O=C(CN1CCCCCC1)NN(Cc1ccccc1)c1ccccc1`, the cell number change was 35.8%. Under setting [2], the AC50 is 29.1 µM [rising, single point].
Take `COc1cccc(NC(=O)N2CCC(NC(=O)C(Cc3cccc(C)c3)NC(C)=O)CC2)c1` (centres undefined): the cell number change came out at 29.5%. The AC50 under setting [1] is 5.17 µM [falling, single point].
Consider `Cc1csc(NC(=O)CS(=O)(=O)Cc2ccccc2)n1`, for which the cell number change was -6.37%. Moreover, the concentration at half-maximal activity (AC50) under setting [1] is 6.51 µM [falling, single point].
On to `COc1cc(CNC(C)c2ccccc2)cc(Br)c1OCc1ccccc1` (centres undefined), for which the cell number change was -52.9%. The AC50 under setting [2] is 18.4 µM [falling, single point]. The AC50 under setting [1] was 23.1 µM [falling, single point].
For the molecule `COc1ccc(NS(=O)(=O)c2cc(NC(=O)CCSc3ccccc3)ccc2OC)cc1`, the cell number change amounted to 11.3%. Further, the AC50 under setting [1] was 29.1 µM [rising, single point].
For `Cc1cc(Cl)ccc1NC(=O)/C=N/O`, the cell number change turned out to be 15.3%. Further, the AC50 under setting [1] is 4.11 µM [rising, single point].
Consider `CCCCOC(=O)n1c(SCC(=O)N(CC)CC)nc2ccccc21`, for which the cell number change worked out at 275%. In addition, under setting [2], the AC50 is 5.8 µM [rising, partial curve]. Further, the AC50 under setting [1] was 5.8 µM [rising, single point].
In the case of `O=C(COc1ccccc1Cl)NC(=S)Nc1ccc(CN2CCOCC2)cc1`, the cell number change stood at 28.3%. The AC50 under setting [1] is 8.2 µM [rising, partial curve].
On to `CC(C)n1c(SCC(=O)N2CCCCC2)nc2c1c(=O)n(C)c(=O)n2C`, for which the AC50 under setting [1] is 11.6 µM [falling, partial curve].
